Results as given in PMC6515519 (Molecules, 2019).

Assay: general procedure: Fmoc solid-phase peptide synthesis; rink-amide-MBHA (100–200 mesh), 0.66 equivalents/g substitution; HBTU, DIEA
Conditions: whole synthesis, 214 nm

Ac-His-Arg-(3,4-diCl)DPhe-Tic-NH2
final HPLC purity: >97%

Ac-His-Arg-(pBr)DPhe-Tic-NH2
final HPLC purity: >98%

Ac-His-Arg-(pCF3)DPhe-Tic-NH2
final HPLC purity: >98%

Ac-His-Arg-(pCN)DPhe-Tic-NH2
final HPLC purity: >97%

Ac-His-Arg-(pCl)DPhe-Tic-NH2
final HPLC purity: >97%

Ac-His-Arg-(pF)DPhe-Tic-NH2
final HPLC purity: >95%

Ac-His-Arg-(pI)DPhe-Tic-NH2
final HPLC purity: >97%

Ac-His-Arg-(pMe)DPhe-Tic-NH2
final HPLC purity: >97%

Ac-His-Arg-(ptBu)DPhe-Tic-NH2
final HPLC purity: >95%

Ac-His-DPhe-Arg-Trp-NH2
final HPLC purity: >98%

PEPTIDE1{[ac].H.R.[dBip].[Tic].[am]}$$$$V2.0
final HPLC purity: >96%

PEPTIDE1{[ac].H.R.[dF].[Tic].[am]}$$$$V2.0
final HPLC purity: >99%

PEPTIDE1{[ac].H.R.[dY].[Tic].[am]}$$$$V2.0
final HPLC purity: >96%

HELM strings list residues between dots; [ac] is acetyl, [am] amide, other brackets name non-standard units.
